No constants are given. Whether binding was seen depends on the method and setting. In cells and extracts the contact can be indirect. Some entries that bind do so weakly or less than the wild type. Tags and fused reporters may be left off the sequences shown.
Biological target: STAT3 (mouse (endogenous in CMT93)) (UniProt P42227)
Test: co-IP; CMT93 cell supernatants immunoprecipitated with 2 ug anti-JMJD2D, anti-STAT3 or control IgG, rotation overnight at 4°C, then western blot; cells without or with heat-killed C. rodentium treatment

The chains behind the UniProt entries cited, without tags or fusion partners.
UniProt P42227: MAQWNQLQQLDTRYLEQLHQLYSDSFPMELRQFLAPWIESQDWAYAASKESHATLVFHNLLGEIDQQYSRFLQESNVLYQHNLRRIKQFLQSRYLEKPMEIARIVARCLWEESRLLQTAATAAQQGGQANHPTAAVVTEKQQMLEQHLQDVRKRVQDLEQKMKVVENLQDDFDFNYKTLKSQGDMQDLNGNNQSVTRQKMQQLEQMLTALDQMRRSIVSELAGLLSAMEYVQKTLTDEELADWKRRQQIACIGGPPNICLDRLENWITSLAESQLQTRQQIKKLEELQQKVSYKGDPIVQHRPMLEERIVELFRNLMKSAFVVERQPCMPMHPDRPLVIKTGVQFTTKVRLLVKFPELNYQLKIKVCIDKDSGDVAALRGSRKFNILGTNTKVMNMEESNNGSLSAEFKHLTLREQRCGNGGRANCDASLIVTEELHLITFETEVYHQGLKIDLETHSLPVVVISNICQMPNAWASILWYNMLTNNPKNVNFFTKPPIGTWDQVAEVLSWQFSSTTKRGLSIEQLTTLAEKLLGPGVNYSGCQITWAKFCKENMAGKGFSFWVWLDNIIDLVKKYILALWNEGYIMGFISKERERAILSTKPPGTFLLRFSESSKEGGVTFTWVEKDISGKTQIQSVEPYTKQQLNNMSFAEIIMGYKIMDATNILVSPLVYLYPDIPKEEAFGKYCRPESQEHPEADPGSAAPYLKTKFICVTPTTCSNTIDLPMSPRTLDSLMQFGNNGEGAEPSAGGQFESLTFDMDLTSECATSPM

B1: Histone demethylase JMJD2D (protein, UniProt Q3U2K5 1-510)
chain: MKTKSTCAQNPNCSIMIFRPTKEEFNDFDKYIAYMESQGAHRAGLAKVIPPKEWRARQSYDNISNILIATPLQQVVSGQAGVFTQYHKKKKGMTVGEYRELANSKKYQTPPHLDFEDLERKYWKNRLYESPIYGADVSGSLFDGKTQQWNVGHLGTIQDLLEQECGIVIEGVNTPYLYFGMWKTTFAWHTEDMDLYSINYLHFGQPKTWYAVPPEHGRRLERLARELFPGSSQGCQAFLRHKVALISPTVLKENGIPFGRITQEAGEFMVTFPYGYHAGFNHGFNCAEAINFATPRWIDYGKVASQCSCGEARVSFSMDAFVRILQPERYELWKRGQDQAVVDHTETMVSTSQELTTRRVTKAPRKTWGLKRLRLRQVSRSLLPIATVSNVPCNMQVCHTSRQPSDVKGDDVQKSDSARASPHPLSLPSSGHMSTRRCSLGRRPCELGAQESSNGAPVKRQLPAGRDDTSPSPELQPQAVSGDLIVDSGLVNPGPQHLMTASEGGLTSDP
binding: binds

Source: article PMC11221690
